Tags and fusion partners may be left off the protein sequences shown.
Target: T1, USB1 wild-type (Homo sapiens) (UniProt Q9BQ65)
T1 sequence: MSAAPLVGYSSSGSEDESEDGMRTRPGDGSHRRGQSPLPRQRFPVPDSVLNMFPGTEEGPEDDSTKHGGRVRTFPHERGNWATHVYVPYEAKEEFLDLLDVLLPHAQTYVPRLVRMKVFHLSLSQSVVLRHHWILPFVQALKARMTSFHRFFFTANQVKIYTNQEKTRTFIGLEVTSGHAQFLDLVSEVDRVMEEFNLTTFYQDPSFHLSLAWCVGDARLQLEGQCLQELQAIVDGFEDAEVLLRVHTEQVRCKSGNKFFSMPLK
Experiment: enzyme reaction in vitro
Conditions: removes single 3' A; 5 uM USB1, 1 uM RNA, 37 C, 20 mM Hepes pH 7.4, 100 mM NaCl, 1 mM EDTA, 1 mM TCEP; purified recombinant protein; protein details: His (pColdI vector, E. coli Rosetta2); label: 5'-FAM

Which “activity on this sequence” value does the source give for “UCCCUGAGACCCUUUAACCUGUGA [miR125a-native]” here?
The value was “active”.

— patent US20220088053
